The other results are listed elsewhere or left out. Further columns of the screen follow, without active or inactive calls. The list favours compounds with an active or inconclusive main result. The note in brackets gives the kind of curve behind each potency; many fits are weak.
Assay: qHTS Assay to Find Inhibitors of Chronic Active B-Cell Receptor Signaling
Settings: ABC-DLBCL IkBa-CBG/CBR reporter, luminescence ratio (green luciferase fused to IkBa over red control in TMD8 lymphoma cells), 4 h
Method in brief: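 TMD8 human ABC-DLBCL cells with doxycycline-inducible IκBα–green luciferase fusion and unfused red luciferase, in 0.5% FBS medium; compounds up to 46 uM, 4 h at 37C. Green/red luminescence ratio, filter-overlap corrected, fitted to concentration-response curves.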

[1] = measured here: CBR red luminescence, cell number
[2] = measured here: IkBa-CBG green luminescence

Compound | AC50 [1] | AC50 [2]
Cc1cccc2cc(C(c3nnnn3Cc3ccccc3)N3CCN(c4ccccc4)CC3)c(=O)[nH]c12 (stereo not given) | 0.291 µM [rising, full curve] | 
CC(=O)c1cccc(N(CC(=O)N2CCCCC2)S(C)(=O)=O)c1 | 0.00461 µM [falling, full curve, poor fit] | 
CC(C)Cc1nnc(NC(=O)c2ccc3c(c2)NC(=O)C(C)S3)s1 (stereo not given) | 7.31 µM [rising, partial curve, poor fit] | 
CCOc1ccc2c(c1)C(C)=CC(C)(C)N2C(=O)Nc1ccccc1 | 18.4 µM [falling, single point] | 
COc1ccc2oc(C(=O)Nc3ccc(S(=O)(=O)N(C)C4CCN(C)CC4)cc3)c(C)c2c1 | 20 µM [falling, partial curve, poor fit] | 
COc1ccccc1CNC(=O)/C=C/c1ccc(S(=O)(=O)N2CCOCC2)cc1 | 0.631 µM [rising, partial curve, poor fit] | 
O=C(O)CCN1C(=O)CC2(CCCCC2)C1=O | 23.1 µM [rising, partial curve, poor fit] | 
CC(=O)c1cccc(NC(=O)C(OC(=O)/C=C/c2ccc3c(c2)OCO3)c2ccccc2)c1 (stereo not given) | 11.6 µM [rising, partial curve, poor fit] | 
Cn1nnnc1Sc1ncnc2scc(-c3ccc(Br)cc3)c12 | 3.26 µM [rising, single point] | 5.17 µM [falling, single point]
O=C(Oc1cc(=O)oc2ccccc12)c1cccnc1Cl | 2.31 µM [falling, partial curve] | 
Cc1cccc(N(C(=O)c2snc(C(N)=O)c2N)C(C(=O)NCc2ccccc2)c2ccncc2)c1 (stereo not given) | 0.562 µM [rising, full curve] | 
Cc1cc(-n2c(C)cc(C(=O)COc3cc(F)ccc3[N+](=O)[O-])c2C)no1 | 29.1 µM [rising, single point] | 
O=C(NC1CCCCCC1)c1ccc([N+](=O)[O-])s1 | 29.1 µM [falling, single point] | 
O=[N+]([O-])c1ccc(-c2ncc(-c3ccc(Br)cc3)o2)cc1 | 1 µM [rising, partial curve] | 
Cc1nc2ccccc2c(=O)n1/N=C/c1ccccc1 | 35.5 µM [falling, single point] | 
CC1CCN(C(=O)COC(=O)c2cc3ccccc3cc2O)CC1 | 10 µM [falling, partial curve] | 
COC(=O)c1ccccc1NC(=O)Nc1ccc(Br)cn1 | 14.1 µM [falling, partial curve, poor fit] | 
COc1ccccc1C1C(C(N)=O)=C(C)Nc2nc(CCCO)nn21 (stereo not given) | 11.2 µM [rising, partial curve, poor fit] | 
Cc1ccc2nc(C(=O)O)c(C(=O)O)nc2c1 | 29.1 µM [rising, single point] | 
COc1cc(C)nc(N2CCC(C(=O)NC3CCCCC3)CC2)n1 | 10.3 µM [rising, single point] | 
CCOc1cccc2cc(-c3nnc(Nc4ccc(F)c(Cl)c4)s3)c(=O)oc12 | 10 µM [falling, partial curve, poor fit] | 

Compound | AC50 [1] | AC50 [2]
Cc1ccc(C)c(S(=O)(=O)N2CCC(c3nc4c(nnn4Cc4ccc5c(c4)OCCO5)c(=O)[nH]3)CC2)c1 | 11.2 µM [falling, partial curve] | 
CCCCN(C(=O)NC(=O)Nc1ccccc1OC)S(C)(=O)=O | 35.5 µM [rising, single point] | 
CCC(=O)Nc1ccc(S(=O)(=O)NCc2ccco2)cc1 | 0.517 µM [falling, full curve, poor fit] | 
O=C(NCc1ccc(F)cc1)c1cc2c(s1)CCCC2 | 1.84 µM [rising, partial curve, poor fit] | 
O=S(=O)(Nc1nnc(C2CC2)s1)c1ccccc1 | 22.4 µM [falling, single point] | 
CCC(C)Sc1ccc(-c2nc3cnccn3c2NC2CCCCC2)cc1 (stereo not given) | 16.4 µM [rising, partial curve, poor fit] | 
O=C(NCc1ccco1)c1cc(-c2cccs2)on1 | 10 µM [falling, partial curve, poor fit] | 
Cc1ccc(S(=O)(=O)c2c(N)n(Cc3ccco3)c3nc4ccccc4nc23)cc1 | 8.91 µM [falling, partial curve] | 
CC1CCCC(NS(=O)(=O)c2cc(Br)cnc2N)C1C (stereo not given) | 15.8 µM [rising, partial curve, poor fit] | 
CCn1ccc(C(=O)Nc2cccc(Cl)c2)n1 | 2.51 µM [rising, partial curve, poor fit] | 
CCn1nnc2cc(C(=O)OCC(=O)N(C)Cc3cccc(F)c3)ccc21 | 29.1 µM [rising, single point] | 
Cc1ccccc1NC(=O)CSC(=O)c1ccccc1 |  | 25.9 µM [falling, single point]
COc1ccc(C(=O)COC(=O)c2cc(S(=O)(=O)N3CCCCC3)ccc2N2CCOCC2)c(OC)c1 | 29.1 µM [rising, single point] | 
CCOC(=O)c1ccc(S(=O)(=O)NC2CCC(C)CC2)cc1 (stereo not given) | 0.082 µM [rising, full curve, poor fit] | 
O=C1NC(Cc2ccccc2)c2nc3cc(F)ccc3c(=O)n2-c2cc(Cl)ccc21 (stereo not given) | 0.731 µM [rising, full curve] | 
CC1CCCCC1NC(=O)COC(=O)c1ccc(S(=O)(=O)NCc2ccco2)cc1 (stereo not given) | 3.66 µM [falling, single point] | 
O=C1/C(=C/c2cccs2)SC(=S)N1NS(=O)(=O)c1ccccc1 | 6.31 µM [falling, full curve, poor fit] | 
C=C1CC(C(=O)N/N=C/c2ccccc2)C1 | 16.4 µM [falling, single point] | 
COc1ccc(-c2cc(=O)c3cc(OC)ccc3o2)cc1 | 0.398 µM [rising, full curve, poor fit] | 
COc1ccc(CC(=O)Nc2cccc(C(C)=O)c2)cc1S(=O)(=O)N1CCOCC1 | 0.461 µM [rising, full curve, poor fit] | 
Cc1ccsc1C(=O)NNC(=O)c1ccccc1F | 11.6 µM [falling, partial curve] | 

In the list so far, these contain two or more sulfur atoms.
Compound | AC50 [1] | AC50 [2]
CC(C)Cc1nnc(NC(=O)c2ccc3c(c2)NC(=O)C(C)S3)s1 (stereo not given) | 7.31 µM [rising, partial curve, poor fit] | 
Cn1nnnc1Sc1ncnc2scc(-c3ccc(Br)cc3)c12 | 3.26 µM [rising, single point] | 5.17 µM [falling, single point]
O=S(=O)(Nc1nnc(C2CC2)s1)c1ccccc1 | 22.4 µM [falling, single point] | 
O=C1/C(=C/c2cccs2)SC(=S)N1NS(=O)(=O)c1ccccc1 | 6.31 µM [falling, full curve, poor fit] | 

Later entries:

Compound | AC50 [1] | AC50 [2]
COc1ccc(NC(=O)CSc2c3c(nc4ccccc24)CCCC3)c(OC)c1 | 29.1 µM [falling, single point] | 
CC1CC(C)CN(C(=O)CCC(=O)Nc2nnc(C3CCCCC3)s2)C1 (stereo not given) | 3.55 µM [rising, partial curve, poor fit] | 
COc1ccc(C(=O)NCCN2C(=O)S/C(=C\c3cccnc3)C2=O)c(OC)c1OC |  | 18.4 µM [falling, partial curve, poor fit]
CC(C)(C)c1ccc(SCCc2cccnc2)cc1 | 0.708 µM [rising, full curve, poor fit] | 
Cn1c(-c2ccc(F)cc2)cnc1NCc1cccc(F)c1 | 35.5 µM [falling, single point] | 
Cc1ccc(C)c(NC(=O)c2ccccc2NC(=O)C2CCCO2)c1 (stereo not given) | 11.2 µM [rising, partial curve] | 
CCC1=C2CC[C@H]3C(=O)N(CC)C(=O)[C@H]3[C@H]2[C@@]2(Cc3ccccc3)C(=NCc3ccccc3)OC(=O)N2C1=O | 0.1 µM [falling, full curve, poor fit] | 
CCOC(=O)[C@@H]1[C@H]2COc3cc(OC)ccc3[C@@H]2N2C(=O)N(c3ccc(Cl)cc3)C(=O)[C@@]12C | 0.355 µM [rising, full curve, poor fit] | 
CCC1=NN(C(=O)C(=O)Nc2ccccc2OC)C(O)(C(F)(F)F)C1 (stereo not given) | 7.08 µM [falling, partial curve] | 
CCCNC(=O)CC1C(=O)N(Cc2ccccc2)C(C)c2nc3ccccc3n21 (stereo not given) | 2.59 µM [rising, single point] | 2.91 µM [falling, single point]
Cc1ccc2nc3c(cc(C(=O)NCCCn4ccnc4)n3C)c(=O)n2c1 | 8.91 µM [rising, partial curve, poor fit] | 
O=C(CN1C(=O)S/C(=C\c2ccc(F)cc2)C1=O)NCCCn1ccnc1 | 10 µM [falling, partial curve, poor fit] | 
Cc1ccc(CN2CC(C(=O)Nc3ccncc3)CC2=O)cc1 (stereo not given) | 5.01 µM [rising, full curve, poor fit] | 
Cc1[nH]c2ccccc2c1/C=N/Nc1nncn1N | 8.91 µM [falling, partial curve] | 
COc1ccc(CN(C)Cc2nc3scc(-c4ccccc4)c3c(=O)[nH]2)cc1OC |  | 23.1 µM [falling, single point]
Cc1cc(C)cc(-n2cc(C(=O)O)c(=O)cc2C)c1 | 35.5 µM [rising, single point] | 
CCCOc1cccc(-c2cc(C(=O)NNC(=S)NCC)c3ccccc3n2)c1 | 25.9 µM [falling, single point] | 
CSc1nnc(-c2sc3cc(C(F)(F)F)cnc3c2-c2ccccc2)n1C | 29.1 µM [rising, single point] | 
Cc1ccc(S(=O)(=O)Nc2ncnc3sc(C)c(C)c23)cc1 | 9.2 µM [falling, partial curve, poor fit] | 
NC(=O)C1=NOC(CNc2ncc(C(F)(F)F)cc2Cl)C1 (stereo not given) | 25.9 µM [rising, single point] | 
COc1ccccc1NC(=O)Cn1cnc2c(nnn2-c2ccc(C)cc2)c1=O | 1.12 µM [rising, full curve, poor fit] | 
